Measurements reported in PubChem BioAssay AID1259276 (Sanger Institute, 2017)
This is one part, drawn at random, of 794 reagents. 24 of them (3%) were called active. 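Calls come only from the siRNA-alone arm; drug synergy scores do not affect them.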 Further read-outs or replicates are left out here. No sequences are given here. The record does not give: the amount of reagent, the time to read-out.

Test: 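Kinome-wide search for kinases colon cancer cells need, and for drug partners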 (primary screen)
Cells: human C2BBe1 colorectal cancer cells
Reagents: siRNA pool against human genes
Treatment: DMSO vehicle, or one anchor drug: BYL719 at 1 µM, cetuximab at 5 µg/ml, or trametinib at 10 nM; exposure length not stated
Measured: 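Cell viability as a fraction of non-targeting control wells, mean of replicates, also as a control-based robust z-score, plus a synergy score for each anchor drug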
Reading the numbers: viability robust z-score, siRNA alone: higher = more viable cells after knock-down
Hit rule: 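a siRNA pool tested without drug is essential if its viability robust z-score falls under -3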
Calls: active = essential (siRNA alone); inactive = no change (siRNA alone)

How did the screen score CDKN2B [SID135620642]?
viability robust z-score, siRNA alone: 0.472; activity call: inactive

How did the screen score CDK14 [SID56478888]?
viability robust z-score, siRNA alone: -1.02; activity call: inactive

With CDC42BPB [SID152149037], how do the results read?
viability robust z-score, siRNA alone: 0.472; activity call: inactive

What is on record for GAK [SID152148846]?
viability robust z-score, siRNA alone: 0.472; activity call: inactive

For PI4KB [SID135621252], what was measured?
viability robust z-score, siRNA alone: 0.472; activity call: inactive

For SRMS [SID56479047], what does the deposit list?
viability robust z-score, siRNA alone: 0.472; activity call: inactive

How did the screen score ALPK2 [SID152151764]?
viability robust z-score, siRNA alone: 0.472; activity call: inactive

Which result is listed for TAOK3 [SID152152167]?
viability robust z-score, siRNA alone: 0.472; activity call: inactive

What is on record for CDKL1 [SID56478790]?
viability robust z-score, siRNA alone: 0.472; activity call: inactive

How did the screen score PTK6 [SID152152810]?
viability robust z-score, siRNA alone: 0.472; activity call: inactive

With LATS2 [SID152149461], how do the results read?
viability robust z-score, siRNA alone: 0.472; activity call: inactive

Which result is listed for PDK4 [SID152155412]?
viability robust z-score, siRNA alone: 0.472; activity call: inactive
